According to article doi:10.1101/2020.06.09.142141:
These are yes or no findings as the source states them, for the method shown. Binding calls can cover weak binding; strength is not graded here.

B1: ANAC016 (NTL3) (protein, UniProt A4FVP6 1-564)
chain: MVDSSRDSCFKAGKFSAPGFRFHPTDEELVVYYLKRKICCKKLRVNAIGVVDVYKVDPSELPGLSMLKTGDRQWFFFTPRNRKYPNAARSSRGTATGYWKATGKDRVIEYNSRSVGLKKTLVFYRGRAPNGERTDWVMHEYTMDEEELGRCKNAKEYYALYKLYKKSGAGPKNGEQYGAPFQEEEWVDSDSEDADSVAVPDYPVVRYENGPCVDDTKFCNPVKLQLEDIEKLLNEIPDAPGVNQRQFDEFVGVPQGNSAEVIQSTLLNNSSGEYIDPRTNGMFLPNGQLYNRDSSFQSHLNSFEATSGMAPLLDNEKEEYIEMNDLLIPELGASSTEKSTEFLNHGEFGDVNEYDQLFNDISVFQGTSTDLSCLSNFTNNTSGQRQQLLYEQFQYQTPENQLNNYMHPSTTLNQFTDNMWFKDDQAALYVQPPQSSSGAFTSQSTGVMPESMNPTMSVNPQYKEGQNGGGTRSQFSSALWELLESIPSTPASACEGPLNQTFVRMSSFSRIRFNGTSVTSRKVTVAKKRISNRGFLLLSIMGALCAIFWVFKATVGVMGRPLLS
B2: ANAC017 (NTL7) (protein, UniProt Q9XIC5 1-557)
chain: MADSSPDSCFKGGKFSAPGFRFHPTDEELVMYYLKRKICRKRLRVNVIGVVDVYKMDPEELPGQSMLKTGDRQWFYFTPRSRKYPNAARSNRGTENGYWKATGKDRVIEYNSRSVGLKKTLVFYRGRAPSGERTDWVMHEYTMDEDELGRCKNPQEYYALYKLFKKSGAGPKNGEQYGAPFQEEEWVDDDNEDVNAIAVAVPEQPVVRYEDARRVDERRLFNPVILQLEDIDELLNGIPNAPGVPQRCIPQVNSEEELQSTLVNNSAREFLPNGQQYNRPSSFDSLETAEVTSAPLVFEKEDFIEMDDLLLIPEFGASSTEKAAQFSNHGEFDDFNEFDQLFHDVSMSLDMEPIDQGTSANLSSLSDSANYTSDQKQQLLYQQFQDQTPENQLNNIMDPSTTLNQITSDIWFEDDQAILFDQQQSFSGAFASPSSGVMPDSTNPTMSVNAQGHEIQNGGGTTSQFSSALWALMDSIPSTPASACEGPLNRTFVRMSSFSRMRFNGKANGTPVSTTIAKKGIRNRGFLLLSIVGALCAIFWVLVATVRVSGRSLLLKD

Target: Plasmopara halstedii RXLR effector PhRXLR-C13 (Plasmopara halstedii)
Experiment: two-hybrid

Binder	binding
B1	binds
B2	no binding
